No constants are given. Whether binding was seen depends on the method and setting. Binding seen in cells or lysates may run through a third protein. Here binding means that the protein was enriched with, or labelled near, the bait; the list need not be complete.
Target: 14-3-3 ζ, endogenous in LNCaP cells (human (endogenous in LNCaP)) (UniProt P63104)
Test: affinity purification with mass spectrometry; RIME (rapid immunoprecipitation mass spectrometry of endogenous proteins on chromatin) on AR and on 14-3-3 ζ in PIM1 over-expressing LNCaP cells; immunoprecipitation as for ChIP-seq, on-bead trypsin/Lys-C digestion, LC-MS; 3 replicates, relative to IgG

Protein sequences, listed by entry. Tags and fused reporters are not part of them.
UniProt P63104: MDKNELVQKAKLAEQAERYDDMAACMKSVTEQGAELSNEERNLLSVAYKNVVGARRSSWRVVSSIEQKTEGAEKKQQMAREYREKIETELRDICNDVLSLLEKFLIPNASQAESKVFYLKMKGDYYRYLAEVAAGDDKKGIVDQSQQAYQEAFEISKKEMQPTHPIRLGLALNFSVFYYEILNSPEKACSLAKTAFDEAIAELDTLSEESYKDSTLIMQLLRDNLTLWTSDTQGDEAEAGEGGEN
UniProt Q13263: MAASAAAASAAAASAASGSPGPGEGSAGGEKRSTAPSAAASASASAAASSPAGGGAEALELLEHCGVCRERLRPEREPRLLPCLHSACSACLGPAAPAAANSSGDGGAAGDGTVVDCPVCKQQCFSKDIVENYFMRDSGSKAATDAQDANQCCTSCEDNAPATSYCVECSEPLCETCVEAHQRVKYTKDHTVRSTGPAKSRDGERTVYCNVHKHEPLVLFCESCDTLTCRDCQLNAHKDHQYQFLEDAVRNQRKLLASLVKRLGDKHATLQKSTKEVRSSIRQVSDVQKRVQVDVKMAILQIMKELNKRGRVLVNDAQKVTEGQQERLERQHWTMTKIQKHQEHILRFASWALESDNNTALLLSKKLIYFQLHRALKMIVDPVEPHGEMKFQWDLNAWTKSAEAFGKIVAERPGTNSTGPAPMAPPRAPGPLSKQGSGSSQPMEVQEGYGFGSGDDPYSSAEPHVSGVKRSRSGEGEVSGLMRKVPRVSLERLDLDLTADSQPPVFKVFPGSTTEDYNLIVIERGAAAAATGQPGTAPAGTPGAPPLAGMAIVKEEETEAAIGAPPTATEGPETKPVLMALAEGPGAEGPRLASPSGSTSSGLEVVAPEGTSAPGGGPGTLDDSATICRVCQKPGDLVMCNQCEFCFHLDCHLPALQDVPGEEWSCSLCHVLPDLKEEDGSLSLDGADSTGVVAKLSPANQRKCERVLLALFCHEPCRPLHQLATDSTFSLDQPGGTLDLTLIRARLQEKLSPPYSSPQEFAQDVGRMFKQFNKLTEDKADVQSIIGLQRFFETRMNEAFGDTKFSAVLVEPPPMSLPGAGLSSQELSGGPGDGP

Substance | binding
TRIM28 (from UniProt Q13263 1-835) | binds
hnRNPK (from UniProt P61978 1-463) | binds
